## Primary screen of a compound library

The chains behind the UniProt entries cited, without tags or fusion partners.
UniProt I6X8D2, whole entry: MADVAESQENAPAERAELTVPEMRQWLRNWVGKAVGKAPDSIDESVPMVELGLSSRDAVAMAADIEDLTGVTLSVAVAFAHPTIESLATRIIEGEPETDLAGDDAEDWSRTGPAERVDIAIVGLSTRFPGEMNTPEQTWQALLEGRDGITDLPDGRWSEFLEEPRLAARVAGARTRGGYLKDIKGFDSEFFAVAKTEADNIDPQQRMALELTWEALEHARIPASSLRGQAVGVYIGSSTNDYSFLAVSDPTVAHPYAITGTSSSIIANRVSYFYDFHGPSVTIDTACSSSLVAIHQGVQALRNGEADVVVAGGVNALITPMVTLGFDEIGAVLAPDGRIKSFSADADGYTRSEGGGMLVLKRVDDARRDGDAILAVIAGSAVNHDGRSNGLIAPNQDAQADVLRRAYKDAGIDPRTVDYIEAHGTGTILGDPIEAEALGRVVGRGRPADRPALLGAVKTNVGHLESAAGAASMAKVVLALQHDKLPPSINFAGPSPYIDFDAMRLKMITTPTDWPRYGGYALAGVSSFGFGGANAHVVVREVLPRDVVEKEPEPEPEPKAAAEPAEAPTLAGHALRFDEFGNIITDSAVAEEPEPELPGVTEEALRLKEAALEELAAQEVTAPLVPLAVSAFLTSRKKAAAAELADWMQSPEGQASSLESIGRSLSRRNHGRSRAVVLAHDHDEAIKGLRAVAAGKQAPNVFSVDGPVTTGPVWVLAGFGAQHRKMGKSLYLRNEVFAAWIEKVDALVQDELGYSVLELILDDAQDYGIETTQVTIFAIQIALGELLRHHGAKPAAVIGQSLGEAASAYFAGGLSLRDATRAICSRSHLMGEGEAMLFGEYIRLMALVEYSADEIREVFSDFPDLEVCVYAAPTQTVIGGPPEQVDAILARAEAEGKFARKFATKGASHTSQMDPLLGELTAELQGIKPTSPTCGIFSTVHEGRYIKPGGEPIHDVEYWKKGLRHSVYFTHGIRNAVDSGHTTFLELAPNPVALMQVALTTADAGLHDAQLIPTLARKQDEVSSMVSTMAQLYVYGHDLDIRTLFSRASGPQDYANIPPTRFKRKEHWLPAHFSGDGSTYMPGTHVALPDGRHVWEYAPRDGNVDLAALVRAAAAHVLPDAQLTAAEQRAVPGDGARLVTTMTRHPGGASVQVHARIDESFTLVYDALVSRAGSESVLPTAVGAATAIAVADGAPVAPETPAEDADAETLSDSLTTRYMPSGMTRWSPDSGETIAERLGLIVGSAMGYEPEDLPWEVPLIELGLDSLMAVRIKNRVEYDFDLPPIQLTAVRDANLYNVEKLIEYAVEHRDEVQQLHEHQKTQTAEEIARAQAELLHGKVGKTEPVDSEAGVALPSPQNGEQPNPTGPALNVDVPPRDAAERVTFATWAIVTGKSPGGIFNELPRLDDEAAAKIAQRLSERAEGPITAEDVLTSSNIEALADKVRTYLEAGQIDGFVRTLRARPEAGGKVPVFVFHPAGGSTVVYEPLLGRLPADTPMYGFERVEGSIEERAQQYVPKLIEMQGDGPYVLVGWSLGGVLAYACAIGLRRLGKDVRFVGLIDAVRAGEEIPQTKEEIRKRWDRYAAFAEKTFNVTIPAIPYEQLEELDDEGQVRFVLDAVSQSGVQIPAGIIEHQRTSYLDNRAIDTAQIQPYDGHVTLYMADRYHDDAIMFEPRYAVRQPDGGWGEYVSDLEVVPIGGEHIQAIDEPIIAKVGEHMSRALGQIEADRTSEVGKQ

Measurements from “University of Dundee, Small-Polar-MMV Screening Library” (2021), ChEMBL document CHEMBL3988442.

Results are given as percent effect. The controls that fix the scale are not given in the record; negative values are as filed. Compounds were drawn at random from those tested, without regard to their results.

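Enzyme assay of the thioesterase domain of polyketide synthase 13; the read-out is not stated. Target: Polyketide synthase Pks13, Mycobacterium tuberculosis (UniProt I6X8D2). Tested at 30 µM. Higher reads as stronger inhibition (inferred from which compounds were picked for retests). Of about 67,000 compounds tested this way, about 300 (0.46%) reached 50% or more in at least one test.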

O=C1CCC2(CCCN(C(=O)c3cccnc3)CC2)N1 (configuration not stated) read -65.2%. COCCNC(=O)NCc1cc(-c2cccs2)n(C2CCCC2)n1 gave -5.895%. Result for COc1ccccc1C(C)(C)NCc1ccco1 was -17.45%. With Cc1csc(N2CCN(C(=O)Cc3ccc(C)s3)CC2)n1 the screen gave 0.7247%. CS(=O)(=O)CCNC1CCCN(Cc2noc(C3CC3)n2)C1 (configuration not stated) read -15.68%. Result for Cn1cccc(NC(=O)N2CCC(CSc3ccccc3)C2)c1=O (configuration not stated) was 9.678%.

With CCOc1cccc(NS(=O)(=O)c2cc(C(=O)O)cs2)c1 the screen gave 0.5859%. For OC(COCc1cccs1)Cn1cc(Br)cn1 (configuration not stated) the result was -12.37%. With COCCC(=O)N1CCC2(CCN(Cc3cccc(F)c3)C2)C1 (configuration not stated) the screen gave -27.78%. c1ccc(COC[C@H]2CC[C@H]3[C@H](CCN3c3ncccn3)O2)nc1 read -8.112%. Result for CC(C)(C)c1ccc2c(c1)CCN2C(=O)c1[nH]c(=O)[nH]c(=O)c1N was -4.972%. O=C(CC1CC1)NCc1cn2c(n1)CN(Cc1cccnc1)CC2 read 6.343%.

Result for Cc1ncnc2c1CCN(Cc1ccc3c(c1)OCO3)CC2 was -10.37%. CNS(=O)(=O)c1cccc(C(C)NCc2ccc(F)cc2F)c1 (configuration not stated) gave -17.77%. N#CC1COCCN1C(=O)c1cccc2cc[nH]c12 (configuration not stated) gave -3.502%. CC(C)(C)c1n[nH]c(C2CN(CCc3ccncc3)CCO2)n1 (configuration not stated) gave -13.3%. For c1cc2nc(C3CCN(CC4CC4)CC3)nn2cc1N1CCCC1 the result was 0.284%. Result for Cc1noc(C2CCN(C(=O)CCc3nccs3)CC2)n1 was 9.801%.

CCc1nnc(CNC2CCc3nc(C(C)C)nn3C2)o1 (configuration not stated) gave -13.64%. CN(C)CCN1CC(C(=O)N(C)Cc2cc3cc(F)ccc3[nH]2)CC1=O (configuration not stated) read -1.417%. Cc1cccc(N(CC(=O)N2CCCCC2)Cc2ccno2)c1 read -21.11%. For O=C(c1sccc1C1CC1)N1CCN(c2nccs2)CC1 the result was -17.56%. With CC(C)Nc1nc2c(c(N(C)C)n1)CCN(Cc1nccn1C)CC2 the screen gave -11.02%. With COc1ccccc1OCC(=O)NS(=O)(=O)c1ccc(F)cc1F the screen gave -31.72%.

For COc1cc(C)nc(N2CCN(Cc3nccn3C)CC2)n1 the result was -5.8%. Nc1nccnc1C1CN(C(=O)c2cnc(C3CC3)nc2)CCO1 (configuration not stated) read 19.94%. O=C(NCC1CCOC1)N1CCN(Cc2ccc3c(c2)OCO3)CC1 (configuration not stated) read -6.38%. Cc1ccc2nc(C)cc(C(=O)NC(C)c3nnn[nH]3)c2c1 (configuration not stated) read -6.914%. COCCN(C)c1cnn(C)c(=O)c1Br read -4.364%. With CCC(CN1CCCCC1)NC(=O)C1(c2ccc(F)cc2)CC1 (configuration not stated) the screen gave 14.29%.

OCCn1cc(CN2CCN(CCOc3cccc(F)c3)CC2)cn1 read -3.788%. With CS(=O)(=O)Cc1cccc(C(=O)NCC2Cc3ccccc3O2)c1 (configuration not stated) the screen gave -3.039%. With COc1cccc(OCC(=O)N2CCC3(CC2)[C@H](O)C[C@@H]3OC)c1 the screen gave -21.15%. CC(=O)N1CCCC2(CN(Cc3ccncc3)CCO2)C1 (configuration not stated) gave -24.94%.

Once more, the final 2:

structure,Percent Effect
COc1cccc(OCC(=O)N2CCC3(CC2)[C@H](O)C[C@@H]3OC)c1,-21.15
CC(=O)N1CCCC2(CN(Cc3ccncc3)CCO2)C1 (configuration not stated),-24.94